# Measurements: PMC13445741
# Results are given in words; binding and its absence hold for the method and conditions named. In cells and extracts the contact can be indirect. A yes stands for co-enrichment or nearness to the bait. Other partners may have been found.
# T1: matrix remodeling associated protein 8 (MXRA8) (human (endogenous in induced neurons from human fibroblasts)) (UniProt Q9BRK3)
# T1 sequence: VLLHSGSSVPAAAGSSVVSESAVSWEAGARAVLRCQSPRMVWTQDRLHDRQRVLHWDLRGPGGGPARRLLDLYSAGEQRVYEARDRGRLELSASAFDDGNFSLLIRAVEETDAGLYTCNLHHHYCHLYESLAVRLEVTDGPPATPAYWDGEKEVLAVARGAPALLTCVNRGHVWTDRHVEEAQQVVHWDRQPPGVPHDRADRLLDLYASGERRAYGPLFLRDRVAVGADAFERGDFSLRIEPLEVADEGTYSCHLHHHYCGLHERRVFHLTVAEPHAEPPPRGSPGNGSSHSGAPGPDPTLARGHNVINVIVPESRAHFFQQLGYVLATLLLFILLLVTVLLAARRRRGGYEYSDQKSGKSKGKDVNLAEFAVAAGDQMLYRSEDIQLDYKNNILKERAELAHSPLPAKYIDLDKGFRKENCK
# Biological target: T1, matrix remodeling associated protein 8 (MXRA8) (human (endogenous in induced neurons from human fibroblasts))
# Assay: affinity purification with mass spectrometry; endogenous MXRA8 precipitated from the soluble fraction of iN lysates (4 control and 4 HD lines) with anti-MXRA8 antibody (Abcam) and Protein A/G magnetic beads, 2 h at 4 °C; lysis buffer 25 mM TRIS.HCl pH 8.0, 150 mM NaCl, 0.2% NP-40, 10% glycerol; label-free LC-MS/MS; HD-iNs compared with …
row,Binder,binding
1,"transglutaminase 2 (TGM2) (protein, UniProt P21980 1-687) MAEELVLERCDLELETNGRDHHTADLCREKLVVRRGQPFWLTLHFEGRNYEASVDSLTFSVVTGPAPSQEAGTKARFPLRDAVEEGDWTATVVDQQDCTLSLQLTTPANAPIGLYRLSLEASTGYQGSSFVLGHFILLFNAWCPADAVYLDSEEERQEYVLTQQGFIYQGSAKFIKNIPWNFGQFEDGILDICLILLDVNPKFLKNAGRDCSRRSSPVYVGRVVSGMVNCNDDQGVLLGRWDNNYGDGVSPMSWIGSVDILRRWKNHGCQRVKYGQCWVFAAVACTVLRCLGIPTRVVTNYNSAHDQNSNLLIEYFRNEFGEIQGDKSEMIWNFHCWVESWMTRPDLQPGYEGWQALDPTPQEKSEGTYCCGPVPVRAIKEGDLSTKYDAPFVFAEVNADVVDWIQQDDGSVHKSINRSLIVGLKISTKSVGRDEREDITHTYKYPEGSSEEREAFTRANHLNKLAEKEETGMAMRIRVGQSMNMGSDFDVFAHITNNTAEEYVCRLLLCARTVSYNGILGPECGTKYLLNLNLEPFSEKSVPLCILYEKYRDCLTESNLIKVRALLVEPVINSYLLAERDLYLENPEIKIRILGEPKQKRKLVAEVSLQNPLPVALEGCTFTVEGAGLTEEQKTVEIPDPVEAGEEVKVRMDLLPLHMGLHKLVVNFESDKLKAVKGFRNVIIGPA",binds
2,"cytochrome P450 family 1 subfamily B member 1 (CYP1B1) (protein, UniProt Q16678 1-543) MGTSLSPNDPWPLNPLSIQQTTLLLLLSVLATVHVGQRLLRQRRRQLRSAPPGPFAWPLIGNAAAVGQAAHLSFARLARRYGDVFQIRLGSCPIVVLNGERAIHQALVQQGSAFADRPAFASFRVVSGGRSMAFGHYSEHWKVQRRAAHSMMRNFFTRQPRSRQVLEGHVLSEARELVALLVRGSADGAFLDPRPLTVVAVANVMSAVCFGCRYSHDDPEFRELLSHNEEFGRTVGAGSLVDVMPWLQYFPNPVRTVFREFEQLNRNFSNFILDKFLRHCESLRPGAAPRDMMDAFILSAEKKAAGDSHGGGARLDLENVPATITDIFGASQDTLSTALQWLLLLFTRYPDVQTRVQAELDQVVGRDRLPCMGDQPNLPYVLAFLYEAMRFSSFVPVTIPHATTANTSVLGYHIPKDTVVFVNQWSVNHDPLKWPNPENFDPARFLDKDGLINKDLTSRVMIFSVGKRRCIGEELSKMQLFLFISILAHQCDFRANPNEPAKMNFSYGLTIKPKSFKVNVTLRESMELLDSAVQNLQAKETCQ",binds
3,"phosphofructokinase (PFKP) (protein, UniProt Q01813 1-784) MDADDSRAPKGSLRKFLEHLSGAGKAIGVLTSGGDAQGMNAAVRAVVRMGIYVGAKVYFIYEGYQGMVDGGSNIAEADWESVSSILQVGGTIIGSARCQAFRTREGRLKAACNLLQRGITNLCVIGGDGSLTGANLFRKEWSGLLEELARNGQIDKEAVQKYAYLNVVGMVGSIDNDFCGTDMTIGTDSALHRIIEVVDAIMTTAQSHQRTFVLEVMGRHCGYLALVSALACGADWVFLPESPPEEGWEEQMCVKLSENRARKKRLNIIIVAEGAIDTQNKPITSEKIKELVVTQLGYDTRVTILGHVQRGGTPSAFDRILASRMGVEAVIALLEATPDTPACVVSLNGNHAVRLPLMECVQMTQDVQKAMDERRFQDAVRLRGRSFAGNLNTYKRLAIKLPDDQIPKTNCNVAVINVGAPAAGMNAAVRSAVRVGIADGHRMLAIYDGFDGFAKGQIKEIGWTDVGGWTGQGGSILGTKRVLPGKYLEEIATQMRTHSINALLIIGGFEAYLGLLELSAAREKHEEFCVPMVMVPATVSNNVPGSDFSIGADTALNTITDTCDRIKQSASGTKRRVFIIETMGGYCGYLANMGGLAAGADAAYIFEEPFDIRDLQSNVEHLTEKMKTTIQRGLVLRNESCSENYTTDFIYQLYSEEGKGVFDCRKNVLGHMQQGGAPSPFDRNFGTKISARAMEWITAKLKEARGRGKKFTTDDSICVLGISKRNVIFQPVAELKKQTDFEHRIPKEQWWLKLRPLMKILAKYKASYDVSDSGQLEHVQPWSV",binds
4,"extended synaptogamin 1 (ESYT1) (protein, UniProt Q9BSJ8 1-1104) MERSPGEGPSPSPMDQPSAPSDPTDQPPAAHAKPDPGSGGQPAGPGAAGEALAVLTSFGRRLLVLIPVYLAGAVGLSVGFVLFGLALYLGWRRVRDEKERSLRAARQLLDDEEQLTAKTLYMSHRELPAWVSFPDVEKAEWLNKIVAQVWPFLGQYMEKLLAETVAPAVRGSNPHLQTFTFTRVELGEKPLRIIGVKVHPGQRKEQILLDLNISYVGDVQIDVEVKKYFCKAGVKGMQLHGVLRVILEPLIGDLPFVGAVSMFFIRRPTLDINWTGMTNLLDIPGLSSLSDTMIMDSIAAFLVLPNRLLVPLVPDLQDVAQLRSPLPRGIIRIHLLAARGLSSKDKYVKGLIEGKSDPYALVRLGTQTFCSRVIDEELNPQWGETYEVMVHEVPGQEIEVEVFDKDPDKDDFLGRMKLDVGKVLQASVLDDWFPLQGGQGQVHLRLEWLSLLSDAEKLEQVLQWNWGVSSRPDPPSAAILVVYLDRAQDLPLKKGNKEPNPMVQLSIQDVTQESKAVYSTNCPVWEEAFRFFLQDPQSQELDVQVKDDSRALTLGALTLPLARLLTAPELILDQWFQLSSSGPNSRLYMKLVMRILYLDSSEICFPTVPGCPGAWDVDSENPQRGSSVDAPPRPCHTTPDSQFGTEHVLRIHVLEAQDLIAKDRFLGGLVKGKSDPYVKLKLAGRSFRSHVVREDLNPRWNEVFEVIVTSVPGQELEVEVFDKDLDKDDFLGRCKVRLTTVLNSGFLDEWLTLEDVPSGRLHLRLERLTPRPTAAELEEVLQVNSLIQTQKSAELAAALLSIYMERAEDLPLRKGTKHLSPYATLTVGDSSHKTKTISQTSAPVWDESASFLIRKPHTESLELQVRGEGTGVLGSLSLPLSELLVADQLCLDRWFTLSSGQGQVLLRAQLGILVSQHSGVEAHSHSYSHSSSSLSEEPELSGGPPHITSSAPELRQRLTHVDSPLEAPAGPLGQVKLTLWYYSEERKLVSIVHGCRSLRQNGRDPPDPYVSLLLLPDKNRGTKRRTSQKKRTLSPEFNERFEWELPLDEAQRRKLDVSVKSNSSFMSRERELLGKVQLDLAETDLSQGVARWYDLMDNKDKGSS",binds
